# In article PMC4284807, “Activation of RidA chaperone function by N-chlorination” (Nature Communications, 2014):
# Amino acid sequences for entries named in this document (tags omitted).
# UniProt P0ACD4: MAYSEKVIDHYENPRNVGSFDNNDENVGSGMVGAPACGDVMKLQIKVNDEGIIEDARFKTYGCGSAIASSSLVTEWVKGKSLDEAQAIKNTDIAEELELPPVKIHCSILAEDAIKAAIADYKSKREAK
# UniProt P0A850: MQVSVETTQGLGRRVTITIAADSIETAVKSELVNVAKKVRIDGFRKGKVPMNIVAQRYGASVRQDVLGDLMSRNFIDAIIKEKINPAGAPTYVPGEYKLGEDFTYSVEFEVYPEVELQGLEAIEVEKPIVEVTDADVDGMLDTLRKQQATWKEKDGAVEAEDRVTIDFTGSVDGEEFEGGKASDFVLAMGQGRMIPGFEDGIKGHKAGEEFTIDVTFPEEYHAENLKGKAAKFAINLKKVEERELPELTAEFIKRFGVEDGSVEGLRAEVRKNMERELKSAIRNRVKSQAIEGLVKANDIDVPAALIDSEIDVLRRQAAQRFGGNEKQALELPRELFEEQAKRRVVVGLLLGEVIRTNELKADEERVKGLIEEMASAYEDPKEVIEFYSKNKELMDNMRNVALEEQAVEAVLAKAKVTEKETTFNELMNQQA
# T1: His-tagged RidA_(HOCl) (E. coli) (UniProt P0AF93)
# T1 sequence (chain, treated with a 10-fold excess of HOCl (N-chlorination; positions not mapped)): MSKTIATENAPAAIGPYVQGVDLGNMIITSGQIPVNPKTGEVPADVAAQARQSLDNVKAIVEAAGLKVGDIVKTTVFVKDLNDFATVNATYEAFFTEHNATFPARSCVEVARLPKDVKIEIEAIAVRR
# Target: T1, His-tagged RidA_(HOCl) (E. coli)
# Assay: affinity purification with mass spectrometry; as the pull-down; pooled and concentrated washing fractions four to six (with or without DTT), tryptic digest, nanoUPLC and Synapt G2-S MS^E; only the target purified
row,Molecule,binding
1,iron sulfur cluster assembly scaffold protein IscU (from UniProt P0ACD4 1-128),binds
2,FkbA (E. coli (endogenous in MG1655 ΔridA)),binds
3,thioredoxin 1 (TrxA) (from UniProt P0AA25 1-109),binds
4,trigger factor (from UniProt P0A850 1-432),binds
5,"YifE (protein, UniProt P0ADN2 1-112) MAESFTTTNRYFDNKHYPRGFSRHGDFTIKEAQLLERHGYAFNELDLGKREPVTEEEKLFVAVCRGEREPVTEAERVWSKYMTRIKRPKRFHTLSGGKPQVEGAEDYTDSDD",binds
6,"HupB (protein, UniProt P0ACF4 1-90) MNKSQLIDKIAAGADISKAAAGRALDAIIASVTESLKEGDDVALVGFGTFAVKERAARTGRNPQTGKEITIAAAKVPSFRAGKALKDAVN",binds
7,"RhmD (protein, UniProt P77215 1-401) MTLPKIKQVRAWFTGGATAEKGAGGGDYHDQGANHWIDDHIATPMSKYRDYEQSRQSFGINVLGTLVVEVEAENGQTGFAVSTAGEMGCFIVEKHLNRFIEGKCVSDIKLIHDQMLSATLYYSGSGGLVMNTISCVDLALWDLFGKVVGLPVYKLLGGAVRDEIQFYATGARPDLAKEMGFIGGKMPTHWGPHDGDAGIRKDAAMVADMREKCGEDFWLMLDCWMSQDVNYATKLAHACAPYNLKWIEECLPPQQYESYRELKRNAPVGMMVTSGEHHGTLQSFRTLSETGIDIMQPDVGWCGGLTTLVEIAAIAKSRGQLVVPHGSSVYSHHAVITFTNTPFSEFLMTSPDCSTMRPQFDPILLNEPVPVNGRIHKSVLDKPGFGVELNRDCNLKRPYSH",binds
8,"uracil phosphoribosyltransferase Upp (protein, UniProt P0A8F0 1-208) MKIVEVKHPLVKHKLGLMREQDISTKRFRELASEVGSLLTYEATADLETEKVTIEGWNGPVEIDQIKGKKITVVPILRAGLGMMDGVLENVPSARISVVGMYRNEETLEPVPYFQKLVSNIDERMALIVDPMLATGGSVIATIDLLKKAGCSSIKVLVLVAAPEGIAALEKAHPDVELYTASIDQGLNEHGYIIPGLGDAGDKIFGTK",binds

# No constants are given. Whether binding was seen depends on the method and setting. Binding seen in cells or lysates may run through a third protein. A yes stands for co-enrichment or nearness to the bait. Other partners may have been found. Tags and fused reporters may be left off the sequences shown.
